Assay results from US20260151367A1, “KIT TO PROMOTE DEVELOPMENTAL MYELINATION” (SOCIÉTÉ DES PRODUITS NESTLÉ S.A., priority 2022, published 2026).
For at least one compound, name, drawing or mass did not settle the structure.

Test system: myelin water fraction (MWF)
Assay: Random forest regression with feature selection for nutrients across ages
Type: in vivo, human
Conditions: listed in order of average importance after log Age
Excerpt: A linear model, like, was fitted to the dataset, all ages included, for each nutrient. Linear models with significant and positive coefficients for the nutrient intake terms were considered as indicative of a linear positive correlation with myelin. The myelin water fraction was Box Cox transformed to make it more symmetric. In addition, to account for possibly non-linear associations and for correlations between the nutrients, we performed a regression model using a random forest and used a feature selection algorithm for finding all relevant variables.
FIG. 2 compares the values of the transformed MWF with the values predicted by the random forest, on a test set.

CC/C=C\C/C=C\C/C=C\C/C=C\C/C=C\C/C=C\CCC(=O)O [Docosahexaenoic (DHA, 22:6), docosahexaenoic acid]
variables selected by the random forest model, sorted by average importance: selected by the random forest model
